The record followed here is paper PMC7819943, “Rice protein-binding microarrays: a tool to detect cis-acting elements near promoter regions in rice”.

By UniProt entry, the sequences of proteins in these tests, tags left out.
UniProt Q0JBA9, entry or part of it: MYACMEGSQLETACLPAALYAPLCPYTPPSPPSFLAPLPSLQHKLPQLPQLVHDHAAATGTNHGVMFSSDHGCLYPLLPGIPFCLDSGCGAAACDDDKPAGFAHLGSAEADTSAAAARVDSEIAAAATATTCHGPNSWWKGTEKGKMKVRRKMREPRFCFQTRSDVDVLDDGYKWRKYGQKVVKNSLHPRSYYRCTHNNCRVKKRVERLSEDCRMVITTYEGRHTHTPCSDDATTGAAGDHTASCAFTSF

Some of the results follow.

The target of the experiment is OsWRKY34 (Oryza sativa, UniProt Q0JBA9 1-250). Briefly: protein-binding microarray (RPBM); PBS, 2% BSA, 51.3 ng/ul salmon testes DNA, 50 uM zinc acetate, 200 nM TF, 25 C, 1 h; high values mean tight binding. As to conditions: protein: recombinant; tags: N-terminal polyhistidine and DsRed monomer fusion (pET32a); label: CyDye5-dUTP incorporated in the synthesized complementary strand; 3' TTTTT single-stranded linker to array surface; dsDNA, one strand shown. The method, boiled down:
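Transcription factors were each fused at the N-terminus to a polyhistidine tag plus DsRed and expressed in E. coli BL21-CodonPlus before Ni–NTA purification. Binding to a double-stranded custom Agilent array was carried out with 200 nM protein at 25 °C for 1 h in PBS, 2% BSA, salmon testes DNA and 50 µM zinc acetate. The binding signal is per-feature fluorescence intensity, in arbitrary units, on an Axon 4000B scanner.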
Regarding “TAATGATGCACAATATATCTTTCAGATTCTACTGCTGTACCGGAGTCACCTAGTGCAG”, the binding signal is 8380 fluorescence intensity (a.u.).

Regarding “CACCAACCCTATGGAGCAGTTCGTCGACGCCCTCATCCAGCGGAGTCACCTAGTGCAG”, the binding signal was 8700 fluorescence intensity (a.u.).

In the case of “TCTGGTTCCCAGGGGCGTGTGATGTTGTAGTAGTATTTCTCGGAGTCACCTAGTGCAG”, the binding signal was 9380 fluorescence intensity (a.u.).

For the sequence “TGCTTCCGGCGGCATTACCTCCTCGTCCTCGTCCGACTCCCGGAGTCACCTAGTGCAG”, the binding signal is 10400 fluorescence intensity (a.u.).

Turning to “CCATTCTTAAGGTACCTCACTTTTTTTTTTCTGTTGGCTCCGGAGTCACCTAGTGCAG”, the binding signal is 8400 fluorescence intensity (a.u.).

Take “ATCATAGTATTCCTTTAATTCCTGGTTCTAAACCTGTTAACGGAGTCACCTAGTGCAG”: the binding signal is 8910 fluorescence intensity (a.u.).

With “GGGTTGAGGGTGGGCCAGTGGAGGACTGGTGGAAGATAGCCGGAGTCACCTAGTGCAG”, the binding signal was 9120 fluorescence intensity (a.u.).

Take “TGTTGACTTTTTCCGGCCCGGATTGACGCCGCAAGCCGAACGGAGTCACCTAGTGCAG”: the binding signal is 10300 fluorescence intensity (a.u.).

In the case of “TGCTTAATTTCCATTGATTCGAACTGTAGTTGCACGCGCGCGGAGTCACCTAGTGCAG”, the binding signal is 8810 fluorescence intensity (a.u.).

As for “AGGTCGACGTGTATATGTTCGTCTTTCATATCTCTGCTCTCGGAGTCACCTAGTGCAG”, the binding signal was 9640 fluorescence intensity (a.u.).

On to “CGCACGCGTGAATCACATCGCCCCGTTTCCATTTTCCAACCGGAGTCACCTAGTGCAG”, for which the binding signal is 8130 fluorescence intensity (a.u.).

In the case of “TCGAATCCTCCGCCCCGTCGTCTCCAAAACCCAACACCCACGGAGTCACCTAGTGCAG”, the binding signal was 8650 fluorescence intensity (a.u.).

For “ATGGTAGTGATCACCCGGCTCCACAGCTCCGGCCTTTTTACGGAGTCACCTAGTGCAG”, the binding signal is 9390 fluorescence intensity (a.u.).

Regarding “GAAAACTCATGGGAGTAGCTATATTTATGGTGCCATATTTCGGAGTCACCTAGTGCAG”, the binding signal is 8290 fluorescence intensity (a.u.).

Consider “AGTCATTCTAGCATTTTTCACATTCATATTAATGTTAATGCGGAGTCACCTAGTGCAG”, for which the binding signal was 8630 fluorescence intensity (a.u.).

On to “CCGTTGTCTTGGAATCATCTCCTCGAGATGTCAAACTCACCGGAGTCACCTAGTGCAG”, for which the binding signal is 10900 fluorescence intensity (a.u.).

“CTTACCGTGTTATAGTAGCCACCCAGTCAGCCGCGCTAACCGGAGTCACCTAGTGCAG”: the binding signal is 8700 fluorescence intensity (a.u.).

Turning to “TCTCTCTCTTTCTCGTCTCCTCCTATCCGCGTCCATCTCTCGGAGTCACCTAGTGCAG”, the binding signal was 9770 fluorescence intensity (a.u.).

Take “GCGGAGGTGGTGAGCGGGGCGGTGGAGTGCTTCAAGCAGTCGGAGTCACCTAGTGCAG”: the binding signal is 8770 fluorescence intensity (a.u.).

Take “ATCCTTGCCCGCCACGGTACACGAGTCCTACTATCCATACCGGAGTCACCTAGTGCAG”: the binding signal is 14700 fluorescence intensity (a.u.).

As to “CAAGTGAGTGGCCATATCTTCCGACCTTCTACTTATTTCACGGAGTCACCTAGTGCAG”, the binding signal is 8470 fluorescence intensity (a.u.).

Turning to “GCGCCTACCGTTGACTCTCCCCAGCCCGATCCGAAACCACCGGAGTCACCTAGTGCAG”, the binding signal was 10200 fluorescence intensity (a.u.).

For “ATATGGTTAAATTTGTGTAGGCTAGCTATATTTTTTTTCTCGGAGTCACCTAGTGCAG”, the binding signal is 10400 fluorescence intensity (a.u.).

For the sequence “ACATCAACGCCAACATCTTCCCCGTCTCTCTCGCTACCCACGGAGTCACCTAGTGCAG”, the binding signal is 9350 fluorescence intensity (a.u.).

For “TTTGCACTGTTTTATCCCTCGTCTTTTATTCAAAAAATTTCGGAGTCACCTAGTGCAG”, the binding signal is 13500 fluorescence intensity (a.u.).

For the sequence “GAACTGATCCATATATTTTTTTGACCATTCTAGCAAGTTCCGGAGTCACCTAGTGCAG”, the binding signal was 8140 fluorescence intensity (a.u.).

For the sequence “TTGATCTATCCTTCAATTCACACAATTAGCTTTGTTTTATCGGAGTCACCTAGTGCAG”, the binding signal is 8580 fluorescence intensity (a.u.).

On to “GAGTTCATCCTTATTGCTTTCTGTCTTGACATTTATCTTGCGGAGTCACCTAGTGCAG”, for which the binding signal was 10100 ± 628 fluorescence intensity (a.u.).

For the sequence “GATTTTATATTAGGGTTCTTGTACAGTTTAAGCACCGACACGGAGTCACCTAGTGCAG”, the binding signal is 8490 fluorescence intensity (a.u.).

“CCCGAGCTAATTCGCGTTAGCTTCCACCCTGTAACCTTTCCGGAGTCACCTAGTGCAG”: the binding signal is 10000 fluorescence intensity (a.u.).

Consider “ATATGTTGTTTGACTTTTTTCATAGTCAGAAGTCTATTGGCGGAGTCACCTAGTGCAG”, for which the binding signal was 19000 fluorescence intensity (a.u.).

As to “GTGGCTGGTTTGACTAGGTCTCCATCCCACGTGGCATTGACGGAGTCACCTAGTGCAG”, the binding signal was 8420 fluorescence intensity (a.u.).

Regarding “CATTTCTGTCGTGCCATCATCTGCATCCTGCACGCCGCATCGGAGTCACCTAGTGCAG”, the binding signal was 14400 fluorescence intensity (a.u.).

Take “GATCTCGCGCATTGCTGTAGGAATTTATAGATCTATATATCGGAGTCACCTAGTGCAG”: the binding signal was 8140 fluorescence intensity (a.u.).

For the sequence “CTCAGGTTGGTATCTCTTTCATTATGCCCCTTTCACATTTCGGAGTCACCTAGTGCAG”, the binding signal is 8950 fluorescence intensity (a.u.).

On to “AAATGTAACGCTAATGACCACTTCTTATTCCATCATTTAACGGAGTCACCTAGTGCAG”, for which the binding signal is 9100 fluorescence intensity (a.u.).

“TTTTTTTATCTTGTTGTGTGTGCTCCAACTAGCCATTCTTCGGAGTCACCTAGTGCAG”: the binding signal is 9090 fluorescence intensity (a.u.).

Regarding “AGTCGAGTCGTGTCGTGTCCCCGGATCGCACTTGCCCCTGCGGAGTCACCTAGTGCAG”, the binding signal is 8380 fluorescence intensity (a.u.).

Turning to “GAGATGCGGAGGGAGGGGAATGTTGGTGTGGCGGTGGCGACGGAGTCACCTAGTGCAG”, the binding signal is 14000 fluorescence intensity (a.u.).

On to “ACCAGGTTAATATTTTCACGCAGGAGTCAGGTCAATTGAACGGAGTCACCTAGTGCAG”, for which the binding signal was 9600 fluorescence intensity (a.u.).

Take “TACTTAATTAATCATGCGCTAATGAACCGTTCCGTTTTTCCGGAGTCACCTAGTGCAG”: the binding signal is 8570 fluorescence intensity (a.u.).

Regarding “CAATAAGTTACATATCCTAGGCTGTGACGAGTTGGATGAACGGAGTCACCTAGTGCAG”, the binding signal was 9350 fluorescence intensity (a.u.).
